# From article doi:10.1101/2023.10.24.563645
# Amino acid sequences for entries named in this document (tags omitted).
# UniProt P10275: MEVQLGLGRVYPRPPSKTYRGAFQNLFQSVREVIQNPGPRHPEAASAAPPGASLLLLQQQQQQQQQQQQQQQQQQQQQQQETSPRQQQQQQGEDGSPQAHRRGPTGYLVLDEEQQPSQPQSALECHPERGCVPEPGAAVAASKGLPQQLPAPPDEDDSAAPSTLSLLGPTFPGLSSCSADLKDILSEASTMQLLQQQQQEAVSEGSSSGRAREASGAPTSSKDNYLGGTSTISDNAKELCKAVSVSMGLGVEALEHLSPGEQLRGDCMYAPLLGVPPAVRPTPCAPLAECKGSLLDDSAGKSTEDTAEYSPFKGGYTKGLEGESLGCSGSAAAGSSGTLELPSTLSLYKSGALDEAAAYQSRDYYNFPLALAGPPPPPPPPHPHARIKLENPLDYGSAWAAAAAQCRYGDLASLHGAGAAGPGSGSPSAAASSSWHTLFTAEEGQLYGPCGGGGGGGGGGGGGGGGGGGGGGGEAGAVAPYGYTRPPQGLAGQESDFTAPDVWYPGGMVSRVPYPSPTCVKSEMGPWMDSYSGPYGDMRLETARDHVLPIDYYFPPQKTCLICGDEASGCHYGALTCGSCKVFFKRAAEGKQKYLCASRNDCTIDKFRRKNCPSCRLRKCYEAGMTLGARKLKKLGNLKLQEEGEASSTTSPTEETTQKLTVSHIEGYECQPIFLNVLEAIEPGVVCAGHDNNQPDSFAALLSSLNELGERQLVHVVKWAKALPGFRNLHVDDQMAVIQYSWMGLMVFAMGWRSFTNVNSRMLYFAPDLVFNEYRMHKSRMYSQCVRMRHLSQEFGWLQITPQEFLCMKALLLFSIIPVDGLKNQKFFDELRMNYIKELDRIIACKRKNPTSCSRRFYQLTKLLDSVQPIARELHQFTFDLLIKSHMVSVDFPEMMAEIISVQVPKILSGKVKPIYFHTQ
# UniProt Q8NF99: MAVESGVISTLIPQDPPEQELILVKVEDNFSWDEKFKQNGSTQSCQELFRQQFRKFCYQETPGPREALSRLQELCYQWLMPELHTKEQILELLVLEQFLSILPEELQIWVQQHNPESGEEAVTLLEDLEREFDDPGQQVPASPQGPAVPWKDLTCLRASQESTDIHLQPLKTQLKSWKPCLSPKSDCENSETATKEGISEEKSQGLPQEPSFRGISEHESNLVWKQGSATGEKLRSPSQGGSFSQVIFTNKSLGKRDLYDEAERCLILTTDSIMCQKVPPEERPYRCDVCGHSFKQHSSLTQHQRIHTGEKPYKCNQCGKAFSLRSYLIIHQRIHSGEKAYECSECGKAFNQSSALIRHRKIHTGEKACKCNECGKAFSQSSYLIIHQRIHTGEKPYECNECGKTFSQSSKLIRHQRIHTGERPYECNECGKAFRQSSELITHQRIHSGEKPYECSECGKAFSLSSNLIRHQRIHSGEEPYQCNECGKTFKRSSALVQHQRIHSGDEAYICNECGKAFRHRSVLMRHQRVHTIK
# Results are given in words; binding and its absence hold for the method and conditions named. Binding seen in cells or lysates may run through a third protein. Some binding calls cover weakened binding; strength is not graded here.
# Biological target: androgen receptor (AR) with Flag tag (UniProt P10275)
# Assay: co-IP
substance,measurement,value
"Zinc Finger Protein 397 (ZNF397), full length, with TY1 tag (from UniProt Q8NF99 1-534)",binding,binds
